# Test results: PubChem BioAssay AID493014 (National Center for Advancing Translational Sciences (NCATS), 2011)
# The list shows a part of the results. These are further read-outs of the screen, such as a control signal, another cell line or another target. No call is given for them. The list favours compounds with an active or inconclusive main result. Words in brackets tell the shape of the fitted curve; partial curves, single points and poor fits give uncertain potencies.
# Experiment: qHTS Assay to Find Inhibitors of Chronic Active B-Cell Receptor Signaling
# Details: ABC-DLBCL IkBa-CBG/CBR reporter, luminescence ratio (green luciferase fused to IkBa over red control in TMD8 lymphoma cells), 4 h
# How it was run: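 Doxycycline induced both beetle luciferases in TMD8 lymphoma cells; IKK-driven degradation limits the IkappaBalpha-fused green signal, while red luminescence normalises for cell number and nonspecific effects. Compounds tested up to 46 uM, 4 hrs.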
# [1] = measured here: IkBa-CBG green luminescence
# [2] = measured here: CBR red luminescence, cell number
Compound,AC50 [1],AC50 [2]
CCN(CC)c1ccc(/C=N/NC(=O)Cc2cccs2)cc1,"13 µM [falling, partial curve, poor fit]",
CCOc1ccc(C(=O)N/N=C(/C)C2C(=O)c3ccccc3C2=O)cc1,"25.9 µM [falling, single point]","8.2 µM [falling, partial curve]"
COc1ccccc1-n1ccn(CC(=O)Nc2ccc(C)cc2Cl)c(=O)c1=O,,"5.8 µM [falling, full curve, poor fit]"
COc1cc(C2C3=C(CCCC3=O)OC3=C2C(=O)CCC3)ccc1OCC(=O)Nc1ccccc1,,"20 µM [falling, partial curve, poor fit]"
CCOc1ccc(NC(=O)CN(C)C(=O)C2CCN(c3ncnc4sc(C)c(C)c34)CC2)cc1OCC,,"11.2 µM [falling, partial curve]"
O=C(NCCCc1ccccc1)C(=O)c1c[nH]c2ccccc12,,"0.794 µM [falling, full curve, poor fit]"
CCCCNC(=O)COC(=O)c1c2c(nc3ccccc13)/C(=C/c1cccs1)CC2,,"16.4 µM [falling, partial curve, poor fit]"
CC(=O)Nc1ccc(S(=O)(=O)Nc2nc3ccccc3nc2Nc2cccc(S(N)(=O)=O)c2)cc1,,"14.1 µM [rising, partial curve]"
CC(=O)N(C)C1=C(N2CCOCC2)C(=O)c2ccccc2C1=O,,"14.1 µM [falling, single point]"
O=C(CN(Cc1ccc2c(c1)OCO2)C(=O)CNC(=O)c1ccco1)NC1CCCCC1,,"35.5 µM [rising, single point]"
O=C(O)c1cccc(Cn2c(Cl)c(/C=N/NC(=O)c3ccccc3Cl)sc2=O)c1,,"2 µM [falling, full curve]"
CCCc1cc(=O)[nH]c(SCC(=O)Nc2ccc(S(=O)(=O)N3CCCC3)cc2)n1,,"20.6 µM [rising, single point]"
O=C(N/N=C/c1ccccc1OCc1ccccc1Cl)c1cccnc1,"14.1 µM [falling, partial curve, poor fit]",
Cc1c(Cl)cnc(NC(=O)CSc2nnc(C)n2Cc2ccccc2)c1Cl,,"0.517 µM [falling, partial curve, poor fit]"
COc1ccccc1OCC(=O)Nc1ccc(N2CCOCC2)cc1N1CCOCC1,,"29.1 µM [rising, single point]"
Cc1ccccc1C(=O)Nc1cccc(C(=O)N/N=C/c2ccccn2)c1,,"8.91 µM [falling, partial curve, poor fit]"
COc1ccc(Cl)cc1NC(=S)N(CCCN1CCOCC1)Cc1cn(C)c2ccccc12,,"0.731 µM [falling, full curve, poor fit]"
Cc1ccc(NC(=O)CCn2cccc2)cc1,,"0.0731 µM [rising, full curve, poor fit]"
O=C(NC(=S)N1CCCc2ccccc21)c1ccc(Br)cc1,,"8.2 µM [falling, partial curve]"
Cc1ccc(-c2nc(C(Cl)Cl)c3ccccc3n2)cc1,"22.4 µM [falling, single point]","11.2 µM [rising, partial curve]"

# 3 compounds from above, sorted by number of heavy atoms, rising.
Compound,AC50 [1],AC50 [2]
O=C(NCCCc1ccccc1)C(=O)c1c[nH]c2ccccc12,,"0.794 µM [falling, full curve, poor fit]"
Cc1ccccc1C(=O)Nc1cccc(C(=O)N/N=C/c2ccccn2)c1,,"8.91 µM [falling, partial curve, poor fit]"
O=C(O)c1cccc(Cn2c(Cl)c(/C=N/NC(=O)c3ccccc3Cl)sc2=O)c1,,"2 µM [falling, full curve]"

# (more compounds)

Compound,AC50 [1],AC50 [2]
COc1ccc(/C=N/NC(=O)c2ccc(COc3ccccc3Cl)o2)cc1,,"0.708 µM [falling, full curve]"
N/C(=N\OC(=O)c1cc(Cl)ccc1Cl)c1ccncc1,,"4.47 µM [falling, full curve, poor fit]"
Cc1ccc(NC2CCCN(C(=O)C3CCCCC3)C2)cc1C (configuration not stated),,"35.5 µM [falling, single point]"
O=C(CSc1nnc(Cn2nnc(-c3ccccc3)n2)n1-c1ccccc1)Nc1ccccc1,,"25.1 µM [falling, partial curve, poor fit]"
CCCCC#Cc1ccc(C(=O)NNC(=O)Nc2ccccc2)o1,,"14.1 µM [falling, partial curve, poor fit]"
COc1ccccc1/C=C1\Cc2ccccc2C1=O,,"11.2 µM [falling, partial curve]"
CC(C)(C)N(NC(=O)Nc1ccc(Cl)c(Cl)c1)C(=O)c1ccccc1,"35.5 µM [rising, partial curve, poor fit]","22.4 µM [falling, single point]"
Cc1ccc(NC(=O)CSc2nnc(-c3ccc(S(=O)(=O)N4CCCC4)cc3)o2)cc1C,,"0.708 µM [rising, full curve, poor fit]"
Cc1cccc2[nH]c3c(N4CCC5(CC4)OCCO5)ncnc3c12,,"2.82 µM [falling, full curve]"
O=C(c1cc2c(=O)oc3ccccc3c2s1)N1CCOCC1,,"2.91 µM [falling, full curve, poor fit]"
COc1ccc(C2CC(c3ccccc3)=NN2C(=O)CSc2ncn[nH]2)cc1 (configuration not stated),,"1.58 µM [rising, full curve]"
COc1ccc(-n2nc(C(=O)N3CCN(Cc4ccc5c(c4)OCO5)CC3)c3ccccc3c2=O)cc1,,"0.0731 µM [rising, full curve, poor fit]"
CC(C)(C)c1cc(C(=O)NNC(=O)Nc2ccccc2)n(Cc2ccccc2)n1,,"22.4 µM [falling, single point]"
C=CCN1C(=O)c2ccc(C(=O)N3CCC(C(=O)OCC)CC3)cc2C1=O,,"0.146 µM [rising, full curve, poor fit]"
COc1ccc(NC(=O)c2sccc2SCc2cccc(C(F)(F)F)c2)cc1,,"5.8 µM [falling, partial curve, poor fit]"
COc1cccc(/C=C2\SC(=O)N(CCC(=O)NC3CCS(=O)(=O)C3)C2=O)c1 (configuration not stated),,"5.62 µM [falling, partial curve]"
Cn1c(=O)n(C)c2cc(S(=O)(=O)N3CCCc4ccccc43)ccc21,,"5.8 µM [rising, partial curve, poor fit]"
O=C(O)c1sccc1SCc1ccc(Cl)c(Cl)c1,,"35.5 µM [falling, single point]"
C=CCN1C(=O)/C(=C/c2ccccc2)S/C1=N/c1nccs1,,"20.6 µM [rising, partial curve]"
